This is one part of the list. Most values lie at the level of the controls, where differences are scatter.

Protein sequences, listed by entry. Tags and fused reporters are not part of them. Lines headed by an entry give the natural chain unless they say otherwise; changes in a name come on top.
UniProt Q3UFS4: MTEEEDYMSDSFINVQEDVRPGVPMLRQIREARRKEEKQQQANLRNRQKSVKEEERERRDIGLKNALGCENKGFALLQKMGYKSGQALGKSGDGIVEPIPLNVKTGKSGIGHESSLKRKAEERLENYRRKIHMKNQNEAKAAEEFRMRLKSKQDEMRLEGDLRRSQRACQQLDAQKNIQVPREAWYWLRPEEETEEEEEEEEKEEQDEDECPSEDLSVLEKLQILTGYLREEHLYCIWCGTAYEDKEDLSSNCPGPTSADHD
UniProt Q04207, whole entry: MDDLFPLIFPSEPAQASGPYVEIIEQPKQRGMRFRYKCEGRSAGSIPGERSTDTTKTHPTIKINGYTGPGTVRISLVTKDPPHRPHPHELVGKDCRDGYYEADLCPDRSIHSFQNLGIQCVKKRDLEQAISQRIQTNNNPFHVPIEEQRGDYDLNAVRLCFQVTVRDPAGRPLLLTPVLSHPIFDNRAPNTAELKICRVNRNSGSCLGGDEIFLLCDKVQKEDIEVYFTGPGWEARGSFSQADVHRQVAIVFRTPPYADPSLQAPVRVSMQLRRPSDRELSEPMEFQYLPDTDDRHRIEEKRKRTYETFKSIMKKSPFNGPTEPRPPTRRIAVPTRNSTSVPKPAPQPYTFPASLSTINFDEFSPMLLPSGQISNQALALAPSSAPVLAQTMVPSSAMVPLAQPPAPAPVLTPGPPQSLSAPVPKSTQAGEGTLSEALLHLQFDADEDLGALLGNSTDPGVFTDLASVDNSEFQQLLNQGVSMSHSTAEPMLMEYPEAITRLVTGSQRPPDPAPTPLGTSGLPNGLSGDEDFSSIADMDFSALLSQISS
UniProt Q04899: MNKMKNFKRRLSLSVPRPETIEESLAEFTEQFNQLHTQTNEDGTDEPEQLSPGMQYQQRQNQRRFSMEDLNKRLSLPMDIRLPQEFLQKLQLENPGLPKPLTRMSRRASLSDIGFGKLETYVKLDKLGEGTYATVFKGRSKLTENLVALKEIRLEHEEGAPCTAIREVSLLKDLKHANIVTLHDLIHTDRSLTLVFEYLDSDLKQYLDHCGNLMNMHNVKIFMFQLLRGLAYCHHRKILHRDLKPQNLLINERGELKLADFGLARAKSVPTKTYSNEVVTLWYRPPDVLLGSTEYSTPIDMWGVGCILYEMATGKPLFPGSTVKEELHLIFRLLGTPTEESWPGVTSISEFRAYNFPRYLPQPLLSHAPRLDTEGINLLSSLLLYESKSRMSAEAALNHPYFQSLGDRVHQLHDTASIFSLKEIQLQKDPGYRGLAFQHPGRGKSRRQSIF
UniProt Q4VC33: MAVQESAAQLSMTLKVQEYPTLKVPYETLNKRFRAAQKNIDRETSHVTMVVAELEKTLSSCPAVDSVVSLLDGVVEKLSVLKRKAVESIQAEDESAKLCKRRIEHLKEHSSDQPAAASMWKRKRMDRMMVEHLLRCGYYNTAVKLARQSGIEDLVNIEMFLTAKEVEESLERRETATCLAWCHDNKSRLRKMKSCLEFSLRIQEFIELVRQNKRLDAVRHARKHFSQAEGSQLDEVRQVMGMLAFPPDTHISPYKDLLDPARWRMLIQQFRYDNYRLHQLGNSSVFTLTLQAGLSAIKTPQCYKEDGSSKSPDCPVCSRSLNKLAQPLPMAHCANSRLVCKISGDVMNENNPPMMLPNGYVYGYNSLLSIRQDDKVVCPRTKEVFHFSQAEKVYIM
UniProt Q5ND28: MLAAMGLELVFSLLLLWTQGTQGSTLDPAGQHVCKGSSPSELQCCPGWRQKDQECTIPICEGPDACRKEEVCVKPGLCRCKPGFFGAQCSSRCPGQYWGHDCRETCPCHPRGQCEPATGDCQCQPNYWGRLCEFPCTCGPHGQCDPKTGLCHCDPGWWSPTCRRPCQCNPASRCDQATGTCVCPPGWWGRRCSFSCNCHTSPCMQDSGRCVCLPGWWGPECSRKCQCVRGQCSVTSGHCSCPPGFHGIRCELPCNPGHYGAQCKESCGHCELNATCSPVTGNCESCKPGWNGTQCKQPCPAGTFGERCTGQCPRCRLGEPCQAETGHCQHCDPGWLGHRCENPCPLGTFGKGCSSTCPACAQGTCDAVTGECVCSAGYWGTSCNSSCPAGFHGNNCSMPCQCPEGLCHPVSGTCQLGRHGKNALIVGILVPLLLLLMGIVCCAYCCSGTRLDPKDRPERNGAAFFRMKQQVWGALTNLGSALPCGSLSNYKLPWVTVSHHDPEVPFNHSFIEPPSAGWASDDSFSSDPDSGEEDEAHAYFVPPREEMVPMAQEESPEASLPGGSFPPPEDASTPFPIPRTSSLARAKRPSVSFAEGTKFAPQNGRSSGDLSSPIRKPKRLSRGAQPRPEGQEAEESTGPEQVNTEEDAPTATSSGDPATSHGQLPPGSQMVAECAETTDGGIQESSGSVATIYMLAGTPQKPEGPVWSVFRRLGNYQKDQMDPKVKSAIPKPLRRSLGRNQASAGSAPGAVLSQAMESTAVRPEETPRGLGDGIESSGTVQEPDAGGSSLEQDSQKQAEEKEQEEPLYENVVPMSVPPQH
UniProt Q3THS6: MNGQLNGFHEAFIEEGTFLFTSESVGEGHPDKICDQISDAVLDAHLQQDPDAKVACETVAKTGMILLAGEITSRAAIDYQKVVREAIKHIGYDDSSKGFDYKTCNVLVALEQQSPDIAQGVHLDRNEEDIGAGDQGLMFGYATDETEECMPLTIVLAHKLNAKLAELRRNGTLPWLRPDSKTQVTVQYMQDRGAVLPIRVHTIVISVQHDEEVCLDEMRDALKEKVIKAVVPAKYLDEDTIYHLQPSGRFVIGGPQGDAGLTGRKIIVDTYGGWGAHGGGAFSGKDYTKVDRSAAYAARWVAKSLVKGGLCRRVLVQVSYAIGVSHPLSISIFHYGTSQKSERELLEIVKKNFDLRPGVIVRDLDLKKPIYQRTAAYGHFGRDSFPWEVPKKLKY
UniProt Q5QR91: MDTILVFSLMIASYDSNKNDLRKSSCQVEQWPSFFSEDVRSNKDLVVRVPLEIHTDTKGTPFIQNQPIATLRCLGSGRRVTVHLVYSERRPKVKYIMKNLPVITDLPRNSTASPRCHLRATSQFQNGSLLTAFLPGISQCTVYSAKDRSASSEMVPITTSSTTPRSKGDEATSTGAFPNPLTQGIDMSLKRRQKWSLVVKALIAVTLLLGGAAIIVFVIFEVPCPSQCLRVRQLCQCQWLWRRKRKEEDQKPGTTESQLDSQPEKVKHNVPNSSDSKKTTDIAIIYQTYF
UniProt Q3UUQ7: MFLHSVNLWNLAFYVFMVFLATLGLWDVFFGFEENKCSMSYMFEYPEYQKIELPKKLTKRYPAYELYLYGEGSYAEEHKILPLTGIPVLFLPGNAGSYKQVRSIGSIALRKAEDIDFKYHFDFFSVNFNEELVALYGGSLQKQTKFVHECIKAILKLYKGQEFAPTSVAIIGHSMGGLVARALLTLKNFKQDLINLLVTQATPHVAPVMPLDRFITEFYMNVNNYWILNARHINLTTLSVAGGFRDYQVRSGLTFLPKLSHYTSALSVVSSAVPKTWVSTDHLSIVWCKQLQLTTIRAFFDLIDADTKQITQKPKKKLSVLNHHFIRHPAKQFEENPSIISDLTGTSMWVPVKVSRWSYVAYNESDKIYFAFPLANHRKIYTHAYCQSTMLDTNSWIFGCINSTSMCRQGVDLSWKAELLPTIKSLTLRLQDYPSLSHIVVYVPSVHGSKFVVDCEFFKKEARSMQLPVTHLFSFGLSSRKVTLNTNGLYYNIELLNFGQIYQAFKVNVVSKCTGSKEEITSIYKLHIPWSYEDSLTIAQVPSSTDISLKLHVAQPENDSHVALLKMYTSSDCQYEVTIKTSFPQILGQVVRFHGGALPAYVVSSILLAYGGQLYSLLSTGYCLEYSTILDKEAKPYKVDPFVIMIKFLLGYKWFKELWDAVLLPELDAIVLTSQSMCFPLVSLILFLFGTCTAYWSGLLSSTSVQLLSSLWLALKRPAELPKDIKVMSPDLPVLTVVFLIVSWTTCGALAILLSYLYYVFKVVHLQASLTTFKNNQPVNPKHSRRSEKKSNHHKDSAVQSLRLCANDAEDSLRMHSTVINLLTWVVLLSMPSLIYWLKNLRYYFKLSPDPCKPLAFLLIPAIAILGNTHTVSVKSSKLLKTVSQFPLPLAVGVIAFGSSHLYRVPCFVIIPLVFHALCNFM
UniProt Q3TLP5: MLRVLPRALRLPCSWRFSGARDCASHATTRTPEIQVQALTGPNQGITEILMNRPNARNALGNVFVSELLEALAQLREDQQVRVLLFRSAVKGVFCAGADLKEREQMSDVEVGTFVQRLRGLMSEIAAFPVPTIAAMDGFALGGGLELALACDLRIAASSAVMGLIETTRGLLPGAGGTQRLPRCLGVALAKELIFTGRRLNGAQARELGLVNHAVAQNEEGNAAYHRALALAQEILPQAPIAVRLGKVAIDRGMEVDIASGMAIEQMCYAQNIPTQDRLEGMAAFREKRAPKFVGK
UniProt Q3TGF2: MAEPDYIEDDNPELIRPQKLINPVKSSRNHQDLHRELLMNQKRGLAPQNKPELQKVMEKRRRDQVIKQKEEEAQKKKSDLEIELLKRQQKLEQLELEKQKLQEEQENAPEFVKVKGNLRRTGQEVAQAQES
UniProt Q2TBE6: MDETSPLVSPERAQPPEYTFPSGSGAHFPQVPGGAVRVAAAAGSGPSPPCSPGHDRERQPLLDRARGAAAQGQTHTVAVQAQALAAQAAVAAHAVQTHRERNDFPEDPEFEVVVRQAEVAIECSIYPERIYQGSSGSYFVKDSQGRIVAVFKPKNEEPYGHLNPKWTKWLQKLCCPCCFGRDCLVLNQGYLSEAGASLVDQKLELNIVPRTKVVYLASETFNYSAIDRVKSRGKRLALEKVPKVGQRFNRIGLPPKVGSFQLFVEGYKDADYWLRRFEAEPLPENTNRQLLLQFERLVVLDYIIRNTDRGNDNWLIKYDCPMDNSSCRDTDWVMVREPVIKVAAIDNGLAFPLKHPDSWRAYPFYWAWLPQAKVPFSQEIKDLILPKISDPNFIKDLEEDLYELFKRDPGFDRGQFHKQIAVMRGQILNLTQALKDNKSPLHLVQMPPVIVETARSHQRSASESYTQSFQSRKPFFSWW
UniProt Q571G4: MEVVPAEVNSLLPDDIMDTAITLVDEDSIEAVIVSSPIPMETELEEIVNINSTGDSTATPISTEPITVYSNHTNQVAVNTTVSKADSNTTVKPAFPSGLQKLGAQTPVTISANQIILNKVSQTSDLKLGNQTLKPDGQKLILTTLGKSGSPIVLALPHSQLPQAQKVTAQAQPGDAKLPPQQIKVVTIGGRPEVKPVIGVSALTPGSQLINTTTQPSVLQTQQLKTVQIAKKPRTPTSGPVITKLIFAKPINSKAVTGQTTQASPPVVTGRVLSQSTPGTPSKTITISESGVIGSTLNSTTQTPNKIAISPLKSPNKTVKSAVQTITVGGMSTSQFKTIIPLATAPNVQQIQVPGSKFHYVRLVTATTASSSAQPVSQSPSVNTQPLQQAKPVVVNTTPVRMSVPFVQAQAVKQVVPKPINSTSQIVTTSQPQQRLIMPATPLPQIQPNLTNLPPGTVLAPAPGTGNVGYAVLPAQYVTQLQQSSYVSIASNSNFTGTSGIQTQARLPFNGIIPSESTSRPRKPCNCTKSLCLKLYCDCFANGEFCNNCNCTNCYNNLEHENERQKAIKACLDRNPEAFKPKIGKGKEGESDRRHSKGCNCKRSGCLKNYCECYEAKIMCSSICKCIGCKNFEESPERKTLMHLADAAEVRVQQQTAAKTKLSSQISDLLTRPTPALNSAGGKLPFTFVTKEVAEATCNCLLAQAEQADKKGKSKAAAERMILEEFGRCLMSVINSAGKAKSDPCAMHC
UniProt Q03311, whole entry: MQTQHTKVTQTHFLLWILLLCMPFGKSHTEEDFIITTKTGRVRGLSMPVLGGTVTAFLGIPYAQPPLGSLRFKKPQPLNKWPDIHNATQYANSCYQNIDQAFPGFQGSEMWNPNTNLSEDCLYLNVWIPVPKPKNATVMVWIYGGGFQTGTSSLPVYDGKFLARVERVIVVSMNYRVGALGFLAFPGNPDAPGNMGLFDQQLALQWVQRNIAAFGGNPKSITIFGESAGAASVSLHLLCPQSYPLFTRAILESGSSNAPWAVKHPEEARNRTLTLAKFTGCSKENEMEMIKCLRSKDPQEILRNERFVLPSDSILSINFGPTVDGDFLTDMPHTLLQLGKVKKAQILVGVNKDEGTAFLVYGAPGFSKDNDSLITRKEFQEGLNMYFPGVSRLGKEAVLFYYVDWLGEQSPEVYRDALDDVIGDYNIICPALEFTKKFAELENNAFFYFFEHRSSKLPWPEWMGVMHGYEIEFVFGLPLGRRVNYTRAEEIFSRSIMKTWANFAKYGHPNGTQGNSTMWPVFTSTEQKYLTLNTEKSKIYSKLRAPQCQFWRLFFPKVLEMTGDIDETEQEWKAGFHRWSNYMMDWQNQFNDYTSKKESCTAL
UniProt Q3TV70: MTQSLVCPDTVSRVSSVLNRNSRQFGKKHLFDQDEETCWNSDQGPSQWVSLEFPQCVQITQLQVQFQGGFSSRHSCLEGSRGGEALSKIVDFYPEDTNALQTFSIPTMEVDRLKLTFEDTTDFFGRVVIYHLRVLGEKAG

Compound in this assay: CN[C@@H]1C[C@H]2O[C@@](C)([C@@H]1OC)n1c3ccccc3c3c4c(c5c6ccccc6n2c5c31)C(=O)NC4 [staurosporine]
The assay is described as follows: log2 fold change of pooled soluble protein (PISA), ligand vs vehicle (log2 ratio); higher = more thermally stabilized. The settings on record: ligand concentration: 20 uM; assay format: PISA pool 52.9/55.5/58.6 C.
Regarding UniProt Q3UFS4, the “log2 fold change of pooled soluble protein” value (shortened to “log2 fold change”) was -0.176.

As to UniProt Q01149, the “log2 fold change” value worked out at 0.187.

On to UniProt Q04207, for which the “log2 fold change” value was -0.103.

As to UniProt Q04899, the “log2 fold change” value was -0.256.

As to UniProt Q4VC33, the “log2 fold change” value is -0.106.

For UniProt Q3THK7, the “log2 fold change” value is -0.153.

In the case of UniProt Q5ND28, the “log2 fold change” value amounted to 0.223.

For UniProt Q3THS6, the “log2 fold change” value is -0.0429.

For UniProt Q3UPH1, the “log2 fold change” value was -0.0864.

In the case of UniProt Q19LI2, the “log2 fold change” value was -0.0136.

UniProt P98078: the “log2 fold change” value is -0.02.

With UniProt Q5QR91, the “log2 fold change” value was found to be 0.49.

As for UniProt Q3UUQ7, the “log2 fold change” value came out at 0.042.

For the target UniProt Q5FWI3, the “log2 fold change” value was -0.0822.

Regarding UniProt Q3TLP5, the “log2 fold change” value is -0.0109.

With UniProt Q505B7, the “log2 fold change” value was -0.232.

Turning to UniProt Q3TGF2, the “log2 fold change” value came out at 0.0781.

On to UniProt Q3URD3, for which the “log2 fold change” value is -0.075.

Consider UniProt Q2TBE6, for which the “log2 fold change” value was 0.489.

UniProt Q3TQB2: the “log2 fold change” value is -0.272.

With UniProt Q3UVK0, the “log2 fold change” value was -0.0101.

Take UniProt Q571G4: the “log2 fold change” value was 0.183.

As for UniProt Q08091, the “log2 fold change” value was found to be 0.334.

Take UniProt Q3TIV5: the “log2 fold change” value was -0.104.

In the case of UniProt Q03311, the “log2 fold change” value was -0.0349.

UniProt Q3TZX3: the “log2 fold change” value amounted to 0.461.

For UniProt P98195, the “log2 fold change” value was -0.00448.

As for UniProt Q3TV70, the “log2 fold change” value was -0.0717.

With UniProt Q2VLH6, the “log2 fold change” value was found to be 0.00477.

For UniProt Q06770, the “log2 fold change” value stood at 0.0908.

Regarding UniProt Q3U9G9, the “log2 fold change” value is -0.177.

Turning to UniProt Q4KMM3, the “log2 fold change” value turned out to be 0.0682.

UniProt Q501J6: the “log2 fold change” value is 0.0939.

Take UniProt Q0VG49: the “log2 fold change” value is -0.22.

As for UniProt Q05AH6, the “log2 fold change” value amounted to 0.136.

Take UniProt Q3TXS7: the “log2 fold change” value is -0.0566.

For the origin of these results see the supplement of paper PMC12819154, “High-throughput peptide-centric local stability assay extends protein–ligand identification to membrane proteins, tissues and bacteria” (Nature Structural & Molecular Biology, 2025).
